From PubChem BioAssay record AID1963582 (Tox21, 2024).

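Potency is fitted from the concentration series in HCT-116 p53 reporter cells, read as a beta-lactamase fluorescence ratio at 16 h. The concentration series mostly goes up to 66 µM. Potency is the fitted concentration that gives half the maximal activation; a lower value means a more potent compound. Calls are based on the whole dose curve, and inconclusive means weak or mixed curves.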

Values are in µM. Every entry below has the call inconclusive. These entries are mostly ones the record files as inconclusive; other results of the assay are not listed here. Potencies fitted to partial, single-point or poorly fitting curves are rough. Some entries filed as inconclusive have a full curve. The first word of each remark tells which way the curve ran; it can be opposite to the aim of the assay.

| # | Compound | fitted potency (µM) | remark |
|---|---|---|---|
| 1 | `C#C[C@]1(O)CC[C@H]2[C@@H]3CCC4=CC(=O)CCC4=C3C=C[C@@]21CC` | 5.614 | rising, full curve |
| 2 | `O=c1cc(-c2ccc(O)cc2)oc2cc(O)cc(O)c12` | 18.22 | activator |
| 3 | `CCCCCCCCCc1ccc(OCCOCCO)cc1` | 1.918 | rising, partial curve |
| 4 | `ClC1=C(Cl)[C@]2(Cl)[C@@H]3[C@@H]4C[C@@H]([C@H]5O[C@@H]45)[C@@H]3[C@@]1(Cl)C2(Cl)Cl` | 15.62 | - |
| 5 | `N#CSc1ccc(N)c([N+](=O)[O-])c1` | 11.56 | rising, full curve, poor fit |
| 6 | `NC(=O)c1nc(-c2cccc(-c3cc(F)ccc3OCC(F)(F)C(F)(F)F)c2)n[nH]1` | 14.47 | rising, partial curve |
| 7 | `C=C(C)C(=O)[O][Sn]([CH2]CCC)([CH2]CCC)[CH2]CCC` | 9.129 | falling, full curve |
| 8 | `CCN=C1C=CC(=C(c2ccc(N(CC)CC)cc2)c2ccc(N(CC)CC)cc2)c2ccccc21` | 45.48 | - |
| 9 | `N#CSCSC#N` | 50.85 | falling, single point |
| 10 | `CCCCC[C@H](O)/C=C/[C@H]1[C@H](O)CC(=O)[C@@H]1C/C=C\CCCC(=O)O` | 3.542 | rising, full curve |
| 11 | `OCCN1CCN(CCCN2c3ccccc3Sc3ccc(Cl)cc32)CC1` | 17.75 | rising, partial curve |
| 12 | `O=C(c1ccc(OCCN2CCCCC2)cc1)c1c(-c2ccc(O)cc2)sc2cc(O)ccc12` | 51.34 | single point |
| 13 | `O=P(OC(CCl)CCl)(OC(CCl)CCl)OC(CCl)CCl` | 28.72 | rising, partial curve, poor fit |
| 14 | `CC(C)Nc1ccc(Nc2ccccc2)cc1` | 20.36 | rising, full curve |
| 15 | `N=C1C=CC(=C(c2ccc(N)cc2)c2ccc(N)cc2)C=C1` | 10.24 | rising, partial curve |
| 16 | `O=C1NC2CCCCN2C12CCN(CCCN1c3ccccc3CCc3ccc(Cl)cc31)CC2` (centres undefined) | 15.82 | rising, partial curve |
| 17 | `O=[N+]([O-])c1ccc(O)c([N+](=O)[O-])c1` | 13.72 | fluorescent |
| 18 | `CCCCCCCCCCCCCCCCCCNC(=O)OC1CCN(C(=O)OC[C@H](COC(=O)N(Cc2cccc[n+]2CC)C(=O)c2ccccc2OC)OC)CC1` | 0.8897 | rising, full curve, poor fit |
| 19 | `CCC[CH2][Sn]([CH2]CCC)([CH2]CCC)[CH2]CCC` | 10.24 | rising, partial curve, poor fit |
| 20 | `CN(C)C(=S)SSC(=S)N(C)C` | 6.374 | rising, full curve |
| 21 | `Clc1ccc(C(c2ccc(Cl)cc2)C(Cl)Cl)cc1` | 16.23 | rising, single point |
| 22 | `O=C1OC(c2ccc(O)cc2)(c2ccc(O)cc2)c2ccccc21` | 36.34 | fluorescent, partial curve |
| 23 | `CCCCCCCC/C=C\CCCCCCCC(=O)N(CCO)CCO` | 20.37 | rising, partial curve |
| 24 | `N[C@@H](Cc1ccc(N(CCCl)CCCl)cc1)C(=O)O` | 13.87 | activator |
| 25 | `CCCCCCCCCC[N+](C)(C)CCCCCCCCCC` | 51.34 | - |
| 26 | `CCC[CH2][Sn]([CH2]CCC)([CH2]CCC)[O][Sn]([CH2]CCC)([CH2]CCC)[CH2]CCC` | 0.1124 | rising, full curve |
| 27 | `CCC(C)(C)C(=O)O[C@H]1C[C@@H](C)C=C2C=C[C@H](C)[C@H](CC[C@@H]3C[C@@H](O)CC(=O)O3)[C@H]21` | 12.9 | rising, full curve |
| 28 | `Cc1cc(S(=O)(=O)O)ccc1N=Nc1c(O)ccc2ccccc12` | 14.47 | rising, partial curve, poor fit |